These are yes or no findings as the source states them, for the method shown. For some assays here: In cells and extracts the contact can be indirect. Some binding calls cover weakened binding; strength is not graded here.
Key:
[1] = target: GFP-tagged K19 (UniProt P08727); assay: co-IP
[2] = target: Keratin 19 (human (endogenous in MDA-MB-231)) (UniProt P08727); assay: co-IP
[3] = target: Keratin 19 (human (endogenous in MDA-MB-231)) (UniProt P08727); assay: proximity ligation
[4] = target: Heterogeneous nuclear ribonucleoprotein K (human (endogenous in MDA-MB-231)) (UniProt P61978); assay: co-IP
[5] = target: preassembled K8/K19 filaments (UniProt P05787); assay: co-sedimentation

Sequences of proteins named here, by UniProt entry; tags and fusion partners are left off. A change or cut given only in a name is not applied to a line headed by its entry.
UniProt P08727: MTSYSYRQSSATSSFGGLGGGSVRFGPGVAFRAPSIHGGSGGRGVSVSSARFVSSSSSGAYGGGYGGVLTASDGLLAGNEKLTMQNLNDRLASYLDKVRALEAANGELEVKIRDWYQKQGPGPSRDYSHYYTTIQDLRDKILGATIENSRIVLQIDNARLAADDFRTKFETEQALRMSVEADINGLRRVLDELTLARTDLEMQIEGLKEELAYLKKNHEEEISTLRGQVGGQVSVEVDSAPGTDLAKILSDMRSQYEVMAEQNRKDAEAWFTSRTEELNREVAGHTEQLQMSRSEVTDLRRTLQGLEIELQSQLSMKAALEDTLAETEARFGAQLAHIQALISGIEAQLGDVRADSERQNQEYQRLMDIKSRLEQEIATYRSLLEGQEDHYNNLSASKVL
UniProt P05787: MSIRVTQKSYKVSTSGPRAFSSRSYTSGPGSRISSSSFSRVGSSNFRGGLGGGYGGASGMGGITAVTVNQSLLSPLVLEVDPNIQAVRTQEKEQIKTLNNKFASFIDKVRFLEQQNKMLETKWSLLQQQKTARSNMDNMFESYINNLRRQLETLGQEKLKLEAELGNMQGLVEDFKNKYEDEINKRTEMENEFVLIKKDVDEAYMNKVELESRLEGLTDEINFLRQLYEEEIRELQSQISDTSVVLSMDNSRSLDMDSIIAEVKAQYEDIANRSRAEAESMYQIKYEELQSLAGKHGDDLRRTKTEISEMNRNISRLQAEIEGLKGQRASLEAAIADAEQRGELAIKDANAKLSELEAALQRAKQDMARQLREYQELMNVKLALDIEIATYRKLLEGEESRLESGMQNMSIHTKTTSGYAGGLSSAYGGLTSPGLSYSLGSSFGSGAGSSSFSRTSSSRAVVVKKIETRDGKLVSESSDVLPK

Heterogeneous nuclear ribonucleoprotein K (from UniProt P61978 1-463)
binding [1]: binds | binding [2]: binds | binding [3]: binds

Keratin 19 (from UniProt P08727 1-400)
binding [4]: binds

recombinant HNRNPK (from UniProt P61978 1-463)
binding [5]: binds
